Experimental data reported in article PMC3167817.
For at least one entry, the source does not settle the construct or the ends of the probe. A negative result means that nothing was seen under these conditions. For some assays here: At least one verdict was read from the data and is not stated in words by the source. For some assays here: Results from cells or extracts need not show a direct contact.

The chains behind the UniProt entries cited, without tags or fusion partners. Where a name states a change or a piece, a line headed by the entry shows the natural chain unless it says otherwise. Residues count along the entry.
UniProt P21860, 20-643: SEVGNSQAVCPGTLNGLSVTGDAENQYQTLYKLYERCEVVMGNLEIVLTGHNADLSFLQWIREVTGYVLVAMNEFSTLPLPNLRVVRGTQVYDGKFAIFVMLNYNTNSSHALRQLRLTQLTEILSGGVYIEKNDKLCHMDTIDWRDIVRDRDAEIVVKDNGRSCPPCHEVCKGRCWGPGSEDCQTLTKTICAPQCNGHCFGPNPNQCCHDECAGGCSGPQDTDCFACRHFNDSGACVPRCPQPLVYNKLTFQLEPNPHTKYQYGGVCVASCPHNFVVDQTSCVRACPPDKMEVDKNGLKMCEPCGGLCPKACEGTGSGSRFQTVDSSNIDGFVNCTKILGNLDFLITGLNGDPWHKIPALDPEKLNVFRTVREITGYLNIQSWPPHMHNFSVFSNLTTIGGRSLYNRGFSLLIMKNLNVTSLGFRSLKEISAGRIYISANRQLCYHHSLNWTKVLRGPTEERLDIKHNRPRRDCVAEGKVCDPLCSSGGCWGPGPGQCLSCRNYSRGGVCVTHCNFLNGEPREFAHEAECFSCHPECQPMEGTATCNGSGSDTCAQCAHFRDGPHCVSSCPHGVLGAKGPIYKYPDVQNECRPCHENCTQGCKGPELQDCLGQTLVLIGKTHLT
UniProt Q15303: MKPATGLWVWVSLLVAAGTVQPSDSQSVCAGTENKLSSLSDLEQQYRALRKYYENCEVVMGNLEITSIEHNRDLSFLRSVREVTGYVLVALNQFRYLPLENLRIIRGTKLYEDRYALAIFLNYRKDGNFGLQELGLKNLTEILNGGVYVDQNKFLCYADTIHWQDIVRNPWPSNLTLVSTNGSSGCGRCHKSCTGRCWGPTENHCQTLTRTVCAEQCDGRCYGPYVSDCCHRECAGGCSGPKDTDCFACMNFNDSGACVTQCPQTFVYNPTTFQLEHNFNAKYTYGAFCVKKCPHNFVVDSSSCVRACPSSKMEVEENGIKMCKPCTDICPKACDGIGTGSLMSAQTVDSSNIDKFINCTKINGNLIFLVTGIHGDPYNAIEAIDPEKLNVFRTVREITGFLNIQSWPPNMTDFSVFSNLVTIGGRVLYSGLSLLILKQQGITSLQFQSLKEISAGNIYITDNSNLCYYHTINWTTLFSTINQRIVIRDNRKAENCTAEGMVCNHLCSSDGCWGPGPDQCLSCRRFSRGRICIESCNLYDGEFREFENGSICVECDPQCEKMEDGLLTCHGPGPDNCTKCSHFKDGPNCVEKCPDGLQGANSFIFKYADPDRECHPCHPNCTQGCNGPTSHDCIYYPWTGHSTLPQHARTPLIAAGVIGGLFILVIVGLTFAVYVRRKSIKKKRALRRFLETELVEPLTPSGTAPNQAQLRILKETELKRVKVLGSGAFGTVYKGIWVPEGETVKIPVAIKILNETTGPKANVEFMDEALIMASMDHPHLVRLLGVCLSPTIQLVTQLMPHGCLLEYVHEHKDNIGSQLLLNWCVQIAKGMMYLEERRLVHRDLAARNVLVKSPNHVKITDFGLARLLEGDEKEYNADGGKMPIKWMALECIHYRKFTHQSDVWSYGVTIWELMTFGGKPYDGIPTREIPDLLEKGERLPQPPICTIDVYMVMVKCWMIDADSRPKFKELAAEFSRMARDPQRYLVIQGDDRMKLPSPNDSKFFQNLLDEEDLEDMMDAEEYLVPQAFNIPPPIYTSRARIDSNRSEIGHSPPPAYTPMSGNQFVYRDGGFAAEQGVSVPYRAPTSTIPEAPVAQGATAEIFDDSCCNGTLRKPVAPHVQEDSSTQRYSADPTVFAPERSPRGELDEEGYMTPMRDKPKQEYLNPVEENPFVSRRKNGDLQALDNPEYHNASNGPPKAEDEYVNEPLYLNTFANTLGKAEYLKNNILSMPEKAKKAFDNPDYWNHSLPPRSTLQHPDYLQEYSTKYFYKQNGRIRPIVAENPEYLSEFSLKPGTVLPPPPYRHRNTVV

Legend:
[1] = target: EGFR on A549 cells (endogenous) (human) (UniProt P00533); test: pull-down; details: streptavidin, anti-EGFR immunoblot; 2'-fluoro pyrimidines; pull-down: 200 nM aptamer on A549 cells 30 min RT, lysis in 10 mM Tris-HCl pH 7.5, 200 mM NaCl, 5 mM EDTA, 0.1% Triton X-100; protein on the cell surface; label: 3'-biotin
[2] = target: EC-ErbB3, DTT treated (human) (UniProt P21860); test: filter binding; details: 5 mM DTT, 20 and 40 nM protein; 2'-fluoro pyrimidines; Filter binding: 1 nM radiolabeled RNA, PBS + 0.01% BSA, 15 min, 37 C (5 mM DTT for monomer); CL4sc background subtracted; commercial protein
ErbB4 = ErbB4 (UniProt Q15303); details: 2'-fluoro pyrimidines
ErbB2 = ErbB2 (UniProt P04626); details: 2'-fluoro pyrimidines

Row | Sequence | binding result [1] | binding result [2] | binding result (ErbB4) | binding result (ErbB2)
1 | UUCGUACCGGGUAGGUUGGCUUGCACAUAGAACGUGUCA [CL4sc] | no binding | – | – | –
2 | GCCUUAGUAACGUGCUUUGAUGUCGAUUCGACAGGAGGC [CL4] | – | no binding | no binding | no binding
3 | GCCUUAGUAACGUGCUUUGAUGUCGAUUCGACAGGAGGC [CL4-bio] | binds | – | – | –
